The values below come from article PMC3747992.

Results are given in words; binding and its absence hold for the method and conditions named. Binding can be weak; no strength is given. For part of these data: Where a sequence is shown, tags or fusion partners need not be part of it. For part of these data: In cells and extracts the contact can be indirect.

In one assay the target is T1, GST-hnRNP L (human) (UniProt P14866).
T1 sequence: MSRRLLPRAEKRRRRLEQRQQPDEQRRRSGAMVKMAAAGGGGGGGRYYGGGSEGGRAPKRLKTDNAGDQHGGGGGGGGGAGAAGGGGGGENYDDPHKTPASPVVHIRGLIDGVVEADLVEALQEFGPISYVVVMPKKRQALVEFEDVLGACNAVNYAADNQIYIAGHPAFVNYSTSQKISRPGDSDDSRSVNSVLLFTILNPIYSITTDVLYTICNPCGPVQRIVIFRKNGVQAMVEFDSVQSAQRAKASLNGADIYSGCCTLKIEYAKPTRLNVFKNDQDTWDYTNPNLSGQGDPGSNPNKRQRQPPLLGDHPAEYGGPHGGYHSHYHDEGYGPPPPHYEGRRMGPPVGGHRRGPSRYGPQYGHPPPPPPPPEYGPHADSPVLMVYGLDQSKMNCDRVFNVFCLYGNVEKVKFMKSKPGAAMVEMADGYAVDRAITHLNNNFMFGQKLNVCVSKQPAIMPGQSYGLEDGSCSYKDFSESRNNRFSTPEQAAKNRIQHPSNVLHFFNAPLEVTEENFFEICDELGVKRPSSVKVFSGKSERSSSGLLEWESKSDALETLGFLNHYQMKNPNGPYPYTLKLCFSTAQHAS
In words: pull-down; GST fusion (GST-hnRNP L or GST-hnRNP A2/B1) or GST immobilised on glutathione-agarose; 1 µg recombinant proteins in 20 mM HEPES pH 7.5, 200 mM KCl, 5 mM MgCl2, 0.2% BSA, 10% glycerol, 0.1% Nonidet P-40; 4°C, 2 h; immunoblot; both purified. In general terms: A western blot detects proteins with antibodies after separation by electrophoresis.

For assay [1], the target named is T2, heterogeneous nuclear ribonucleoprotein L (hnRNP L), endogenous (human (endogenous in U937 and primary PBM)) (UniProt P14866).
T2 sequence: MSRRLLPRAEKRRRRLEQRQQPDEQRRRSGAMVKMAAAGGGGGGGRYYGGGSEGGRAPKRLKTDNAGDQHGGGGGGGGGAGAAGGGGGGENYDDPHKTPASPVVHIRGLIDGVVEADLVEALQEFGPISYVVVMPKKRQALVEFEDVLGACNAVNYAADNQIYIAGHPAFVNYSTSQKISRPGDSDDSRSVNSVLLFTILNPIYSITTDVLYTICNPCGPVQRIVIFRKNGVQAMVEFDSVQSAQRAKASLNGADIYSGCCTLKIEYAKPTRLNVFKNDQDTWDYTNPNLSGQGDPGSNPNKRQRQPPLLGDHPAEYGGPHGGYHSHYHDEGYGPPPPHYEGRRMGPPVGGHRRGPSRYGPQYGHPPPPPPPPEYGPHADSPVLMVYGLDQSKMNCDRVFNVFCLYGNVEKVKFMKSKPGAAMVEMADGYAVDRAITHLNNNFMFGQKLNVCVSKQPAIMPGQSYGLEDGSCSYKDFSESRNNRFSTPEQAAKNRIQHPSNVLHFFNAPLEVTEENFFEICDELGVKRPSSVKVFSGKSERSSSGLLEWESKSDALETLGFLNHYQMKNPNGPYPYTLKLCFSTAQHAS
In words: co-IP; IP with anti-hnRNP L antibody from lysates of U937 cells and primary human PBM treated with IFN-γ in normoxia or hypoxia for 24 h; lysates with or without RNase A; immunoblot for hnRNP A2/B1, DRBP76, VHL; also after HA-VHL overexpression in hypoxia (Figure S7).

For assay [2], the target named is recombinant His-tagged DRBP76. In words: co-IP; recombinant DRBP76 and hnRNP A2/B1 (5 pmol each) with phospho-mimetic hnRNP L Y359D (5 pmol) and HSR RNA (5 pmol), 1 h on ice; IP with anti-DRBP76 antibody, immunoblot anti-hnRNP A2/B1; both purified.

With recombinant His-tagged DRBP76, the binding result with GST-hnRNP L (human) is reported as “binds”.

“DRBP76 (double-stranded RNA binding protein 76), endogenous”: the binding entry in assay [1] was “binds”.

B1: recombinant His-tagged phospho-mimetic hnRNP L (Y359D) (protein, UniProt P14866 1-589)
chain: MSRRLLPRAEKRRRRLEQRQQPDEQRRRSGAMVKMAAAGGGGGGGRYYGGGSEGGRAPKRLKTDNAGDQHGGGGGGGGGAGAAGGGGGGENYDDPHKTPASPVVHIRGLIDGVVEADLVEALQEFGPISYVVVMPKKRQALVEFEDVLGACNAVNYAADNQIYIAGHPAFVNYSTSQKISRPGDSDDSRSVNSVLLFTILNPIYSITTDVLYTICNPCGPVQRIVIFRKNGVQAMVEFDSVQSAQRAKASLNGADIYSGCCTLKIEYAKPTRLNVFKNDQDTWDYTNPNLSGQGDPGSNPNKRQRQPPLLGDHPAEYGGPHGGYHSHYHDEGYGPPPPHYEGRRMGPPVGGHRRGPSRDGPQYGHPPPPPPPPEYGPHADSPVLMVYGLDQSKMNCDRVFNVFCLYGNVEKVKFMKSKPGAAMVEMADGYAVDRAITHLNNNFMFGQKLNVCVSKQPAIMPGQSYGLEDGSCSYKDFSESRNNRFSTPEQAAKNRIQHPSNVLHFFNAPLEVTEENFFEICDELGVKRPSSVKVFSGKSERSSSGLLEWESKSDALETLGFLNHYQMKNPNGPYPYTLKLCFSTAQHAS
Regarding B1, in assay [2], the binding result is “binds”.
